Measured values: paper PMC8384837
Changes are numbered by the printed parent chain. Some of the results follow. For some of these results: At the low end of the ranking the order means little.

Key:
Settings in all cases: yeast three-hybrid, YBZ-1, SC-Leu-His + 0.5 mM 3-AT, 4 days
[1] = biological target: T1, PUM1 PUF domain R7-GSR S1079G + N1080S + E1083R (Homo sapiens) (UniProt Q14671)
T1 sequence: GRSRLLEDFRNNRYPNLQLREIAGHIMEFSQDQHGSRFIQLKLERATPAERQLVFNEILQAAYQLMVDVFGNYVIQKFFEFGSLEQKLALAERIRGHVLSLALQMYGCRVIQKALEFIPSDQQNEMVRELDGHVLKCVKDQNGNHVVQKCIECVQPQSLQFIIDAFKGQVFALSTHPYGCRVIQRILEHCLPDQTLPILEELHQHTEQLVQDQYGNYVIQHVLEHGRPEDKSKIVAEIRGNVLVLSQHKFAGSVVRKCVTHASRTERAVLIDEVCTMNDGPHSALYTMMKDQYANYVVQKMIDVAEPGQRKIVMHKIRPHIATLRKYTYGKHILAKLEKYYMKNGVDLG

[2] = biological target: T2, PUM1 PUF domain R7-GSV S1079G + N1080S + E1083V (UniProt Q14671)
T2 sequence: T1 sequence with R256V

[3] = biological target: T3, PUM1 PUF domain R7-GTR S1079G + N1080T + E1083R (Homo sapiens) (UniProt Q14671)
T3 sequence: T1 sequence with S253T

[4] = biological target: T4, PUM1 PUF domain R7-GTS S1079G + N1080T + E1083S (UniProt Q14671)
T4 sequence: T1 sequence with S253T, R256S

[5] = biological target: T5, PUM1 PUF domain R7-GVD S1079G + N1080V + E1083D (UniProt Q14671)
T5 sequence: T1 sequence with S253V, R256D

[6] = biological target: T6, PUM1 PUF domain R7-GVK S1079G + N1080V + E1083K (Homo sapiens) (UniProt Q14671)
T6 sequence: T1 sequence with S253V, R256K

[7] = biological target: T7, PUM1 PUF domain R7-GVN S1079G + N1080V + E1083N (UniProt Q14671)
T7 sequence: T1 sequence with S253V, R256N

[8] = biological target: T8, PUM1 PUF domain R7-GVV S1079G + N1080V + E1083V (Homo sapiens) (UniProt Q14671)
T8 sequence: T1 sequence with S253V, R256V

[9] = biological target: T9, PUM1 PUF domain R7-IMG S1079I + N1080M + E1083G (UniProt Q14671)
T9 sequence: T1 sequence with G252I, S253M, R256G

[10] = biological target: T10, PUM1 PUF domain R7-ISG S1079I + N1080S + E1083G (UniProt Q14671)
T10 sequence: T1 sequence with G252I, R256G

[11] = biological target: T11, PUM1 PUF domain R7-ISR S1079I + N1080S + E1083R (Homo sapiens) (UniProt Q14671)
T11 sequence: T1 sequence with G252I

[12] = biological target: T12, PUM1 PUF domain R7-ISS S1079I + N1080S + E1083S (UniProt Q14671)
T12 sequence: T1 sequence with G252I, R256S

[13] = biological target: T13, PUM1 PUF domain R7-KGG S1079K + N1080G + E1083G (Homo sapiens) (UniProt Q14671)
T13 sequence: T1 sequence with G252K, S253G, R256G

[14] = biological target: T14, PUM1 PUF domain R7-KGS S1079K + N1080G + E1083S (Homo sapiens) (UniProt Q14671)
T14 sequence: T1 sequence with G252K, S253G, R256S

[15] = biological target: T15, PUM1 PUF domain R7-KGV S1079K + N1080G + E1083V (Homo sapiens) (UniProt Q14671)
T15 sequence: T1 sequence with G252K, S253G, R256V

[16] = biological target: T16, PUM1 PUF domain R7-LER S1079L + N1080E + E1083R (UniProt Q14671)
T16 sequence: T1 sequence with G252L, S253E

[17] = biological target: T17, PUM1 PUF domain R7-LFD S1079L + N1080F + E1083D (UniProt Q14671)
T17 sequence: T1 sequence with G252L, S253F, R256D

[18] = biological target: T18, PUM1 PUF domain R7-LMF S1079L + N1080M + E1083F (UniProt Q14671)
T18 sequence: T1 sequence with G252L, S253M, R256F

[19] = biological target: T19, PUM1 PUF domain R7-LNA S1079L + E1083A (Homo sapiens) (UniProt Q14671)
T19 sequence: T1 sequence with G252L, S253N, R256A

[20] = biological target: T20, PUM1 PUF domain R7-LNG S1079L + E1083G (Homo sapiens) (UniProt Q14671)
T20 sequence: T1 sequence with G252L, S253N, R256G

[21] = biological target: T21, PUM1 PUF domain R7-LPT S1079L + N1080P + E1083T (UniProt Q14671)
T21 sequence: T1 sequence with G252L, S253P, R256T

[22] = biological target: T22, PUM1 PUF domain R7-LSC S1079L + N1080S + E1083C (Homo sapiens) (UniProt Q14671)
T22 sequence: T1 sequence with G252L, R256C

[23] = biological target: T23, PUM1 PUF domain R7-LSS S1079L + N1080S + E1083S (UniProt Q14671)
T23 sequence: T1 sequence with G252L, R256S

[24] = biological target: T24, PUM1 PUF domain R7-LST S1079L + N1080S + E1083T (Homo sapiens) (UniProt Q14671)
T24 sequence: T1 sequence with G252L, R256T

[25] = biological target: T25, PUM1 PUF domain R7-LSV S1079L + N1080S + E1083V (Homo sapiens) (UniProt Q14671)
T25 sequence: T1 sequence with G252L, R256V

## GGCUAGAACUAGUGGAUCCCCCGGCGCCCGGCGGCUCGAGCCCGGGUAAGUCUAAAUAGUCUGCAUGCCGCCGGGCGCCAUGCCUGCAGGUCGACUCUAGAAAACAUG
[1]
  binding signal (log2 enrichment (interaction score)): -2.24
[2]
  binding signal (log2 enrichment (interaction score)): -8.08
[3]
  binding signal (log2 enrichment (interaction score)): -5.13
[4]
  binding signal (log2 enrichment (interaction score)): < -9.6
[5]
  binding signal (log2 enrichment (interaction score)): < -9.46
[6]
  binding signal (log2 enrichment (interaction score)): -6.04
[7]
  binding signal (log2 enrichment (interaction score)): < -9
[8]
  binding signal (log2 enrichment (interaction score)): -4.12
[9]
  binding signal (log2 enrichment (interaction score)): < -7.47
[10]
  binding signal (log2 enrichment (interaction score)): < -10.2
[11]
  binding signal (log2 enrichment (interaction score)): -2.31
[12]
  binding signal (log2 enrichment (interaction score)): < -8.18
[13]
  binding signal (log2 enrichment (interaction score)): -1.66
[14]
  binding signal (log2 enrichment (interaction score)): -0.38
[15]
  binding signal (log2 enrichment (interaction score)): -0.97
[16]
  binding signal (log2 enrichment (interaction score)): < -10.2
[17]
  binding signal (log2 enrichment (interaction score)): < -8.65
[18]
  binding signal (log2 enrichment (interaction score)): < -7.91
[19]
  binding signal (log2 enrichment (interaction score)): -3.8
[20]
  binding signal (log2 enrichment (interaction score)): -2.32
[21]
  binding signal (log2 enrichment (interaction score)): < -9.1
[22]
  binding signal (log2 enrichment (interaction score)): -3.56
[23]
  binding signal (log2 enrichment (interaction score)): < -11.3
[24]
  binding signal (log2 enrichment (interaction score)): -6.04
[25]
  binding signal (log2 enrichment (interaction score)): -2.85
